For part of these data: HELM strings list residues between dots; [ac] is acetyl, [am] amide, other brackets name non-standard units.
Key:
Conditions in all cases: whole synthesis
[1] = general procedure: Fmoc solid-phase peptide synthesis; 1,5-diaminopentanetrityl resin; TBTU/HOBt
[2] = general procedure: Fmoc solid-phase peptide synthesis; 2-chlorotrityl chloride resin; TBTU/HOBt
[3] = general procedure: Fmoc solid-phase peptide synthesis; Rink amide resin; TBTU/HOBt

Row | Substance | isolated yield [1] | isolated yield [2] | isolated yield [3]
1 | PEPTIDE1{A.F.K.[EACA].[NH(CH2)5NH2]}$$$$V2.0 | 37% | – | –
2 | PEPTIDE1{[dA].F.K.[EACA].[NH(CH2)5NH2]}$$$$V2.0 | 38% | – | –
3 | PEPTIDE1{[dA].F.K.[EACA]}$$$$V2.0 | – | 49% | –
4 | PEPTIDE1{A.F.K.[EACA]}$$$$V2.0 | – | 47% | –
5 | H–Ala–Phe–Lys–EACA–NH2 | – | – | 50%
6 | H–D-Ala–Phe–Lys–EACA–NH2 | – | – | 48%
